Results taken from PubChem BioAssay AID1508600 (Functional Genomics Laboratory (NCATS/FGL), 2020).
Screen size: about 53,000 sequences; about 3,700 (7%) were called active.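 How the source made its calls: active means gene knockdowns whose robust z-score for IL-1 alpha signal is at least 2 or at most -2, so actives lie on both sides; inactive means the rest.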 Some of the results follow.

Assay: Components of the Cytosolic LPS Sensing Pathway: Gene Identification via Genome-wide siRNA Screen;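 further: robust z of the log signal after scaling to non-targeting control siRNA wells of the plate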
Conditions: RAW264.7 macrophages, IL-1a HTRF, actives lie on both sides, screened at 100 nM (by protocol), cells primed 5 h with Pam3CSK4 first
Outline: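 Read-out: IL-1a HTRF on supernatant, divided by plate negative-control median ×100, log-transformed and converted to robust z-score. Cells were RAW264.7 given 100 nM siRNA, Pam3CSK4-primed 5 hours, then LipidA-transfected 24 hour.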

Row | Sequence | z-score
1 | GAAUCUCCAGAACCUAUUUTT against Pln | inactive: -0.547
2 | GCUGCAUCGAAAAACUCAGTT against Mycbp2 | inactive: -0.564
3 | CCCUAGUUACCAAUUCCACTT against Olfr293 | active: 2.61
4 | GCAGAAAAUCGCUACCCAGTT against Spice1 | inactive: -0.338
5 | GGGAUCAAUGUGGACAGUUTT against Icosl | inactive: 1.02
6 | GGGAGAGCUGGCUAAAUGATT against Sptbn4 | inactive: -0.956
7 | GGUAGAGGAUCUCUCUAAATT against Fbxo44 | inactive: -0.444
8 | GCUGCUGAUCAGUUCGAUCTT against B230219D22Rik | inactive: 0.947
9 | GACUGAGCUUCUGUGAUGGTT against Olfr921 | active: -2.5
10 | GCAGGGUUUUUCCAAUAUATT against Asah2 | inactive: -0.277
11 | GGAAAUGGACCUUCAAAUCTT against Ppm1h | inactive: -0.22
12 | GCAUCAAGCCUGGAGAUUCTT against Upf3b | inactive: 0.347
13 | GGAAUCCACGACAUGCUAGTT against Pacrg | inactive: -0.193
14 | GUACAAGCUGUGCAAGGUGTT against Rps4l | inactive: 0.0788
15 | CGUCAAAGGAGACAGCUUUTT against Rbm15b | inactive: 1.56
16 | GGCACAGUGUGGAAAAGUUTT against Cst7 | inactive: -0.462
17 | CCUGUACGUAUUUACAACUTT against 2410004B18Rik | inactive: -0.0606
18 | GGCCUAUUUAACUAUAGUGTT against Anxa13 | inactive: 0.891
19 | GGGUGAUAAAUGUUUGAAUTT against Vmn1r45 | inactive: 0.338
20 | GGUGGAUUUUUUCUAAUACTT against Star | inactive: -0.0248
21 | GCCUGAUUCAGAGUAUAAATT against Col14a1 | inactive: -1.24
22 | GGCAUUGCGUUGGCGAUGUTT against Coa4 | inactive: 0.00971
23 | GCCUGACUAUGCUAAAGCUTT against Cyp4b1 | inactive: 0.0527
24 | GGUACUAGGUCUGAGGGAGTT against Rdh16 | inactive: 0.741
25 | GGUCUGCUGUUCAAAAUCATT against Marchf10 | inactive: 0.235
26 | GGGUAUCUGAUUUAUAAGCTT against Mageh1 | inactive: -0.371
27 | GGCUAAACCAACCUCGUGCTT against Cisd1 | inactive: 0.572
28 | GGCUCUCAAAACUUGCUGUTT against Utp18 | inactive: -0.307
29 | GGUCAGCAAUGGAAGUAAUTT against Onecut1 | inactive: -0.189

Looked up one by one from the list above, 2 records:
Row | Sequence | z-score
15 | CGUCAAAGGAGACAGCUUUTT against Rbm15b | inactive: 1.56
25 | GGUCUGCUGUUCAAAAUCATT against Marchf10 | inactive: 0.235
